PubChem BioAssay AID1259331 – Drosophila RNAi Screening Center | 2017
Aim: 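Fly transmembrane-protein genes that affect zinc toxicity in cultured cells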 (primary screen). Cell system: Drosophila S2R+ cells. Knock-down reagent: long dsRNA against Drosophila genes. Timing: 5 days (4 days knock-down, then 1 day zinc). Conditions: zinc chloride at 15 mM final level for 1 day. Detection: 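Total cellular ATP measured by luciferase luminescence as a viability proxy, turned into Z scores from three plate copies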. Scale: mean Z score: higher = more ATP than other wells, better survival under zinc; ATP luminescence: higher = more ATP, more viable cells. Rule for the call: 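a reagent is called a hit when its Z score is above 1.5 or below -1.5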. Calls: active = hit, ATP up or down; inactive = not a hit.
Shown is an unselected part of about 3,100 reagents tested. 126 of them (4.1%) were called active. 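Calls are per reagent; zinc was so toxic that few knock-downs lowered ATP further, so most hits raise ATP.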 Raw values are not corrected between plates. A plus sign joins genes that one reagent is predicted to hit. The record does not give: the amount of reagent.

target | amplicon | mean Z score | ATP luminescence, replicate 1 | ATP luminescence, replicate 2 | activity call
CG13325 (GeneID 36437) | DRSC06362 | -0.274 | 31896 | 27868 | inactive
CG13325 (GeneID 36437) | DRSC24773 | -0.328 | 56808 | 51355 | inactive
Sec61gamma (GeneID 32968) | DRSC19570 | -0.217 | 38643 | 40262 | inactive
Sec61gamma (GeneID 32968) | DRSC25563 | -0.355 | 40656 | 59620 | inactive
CG5885 (GeneID 34314) | DRSC02910 | 2.66 | 92758 | 94891 | active
CG5885 (GeneID 34314) | DRSC28761 | 1.04 | 75294 | 79446 | inactive
Appl (GeneID 31002) | DRSC27476 | 0.311 | 73323 | 58197 | inactive
Appl (GeneID 31002) | DRSC39441 | 0.199 | 46211 | 57832 | inactive
dome (GeneID 32976) | DRSC19583 | -0.42 | 39130 | 41222 | inactive
dome (GeneID 32976) | DRSC36979 | 0.189 | 54442 | 47686 | inactive
dome (GeneID 32976) | DRSC36980 | 0.0347 | 51749 | 46588 | inactive
stnA + stnB | DRSC20969 | 0.033 | 54407 | 42954 | inactive
stnA + stnB | DRSC21112 | 0.41 | 36426 | 60306 | inactive
stnA + stnB | DRSC21113 | -0.363 | 36617 | 45525 | inactive
CG8219 (GeneID 38722) | DRSC10971 | -0.0182 | 79314 | 59432 | inactive
CG8219 (GeneID 38722) | DRSC24577 | 0.366 | 63204 | 58711 | inactive
Or23a (GeneID 33450) | DRSC00767 | -0.256 | 42765 | 42662 | inactive
Or23a (GeneID 33450) | DRSC39706 | 0.117 | 62776 | 62535 | inactive
CG31998 (GeneID 43774) | DRSC17137 | -0.319 | 41633 | 43266 | inactive
CG31998 (GeneID 43774) | DRSC17138 | 1.01 | 79858 | 85672 | inactive
Lap1 (GeneID 36670) | DRSC07454 | 0.846 | 88705 | 85347 | inactive
Lap1 (GeneID 36670) | DRSC39730 | -0.00705 | 65176 | 55590 | inactive
bwa (GeneID 250736) | DRSC01749 | 0.401 | 49555 | 48286 | inactive
bwa (GeneID 250736) | DRSC02310 | 0.541 | 55419 | 50481 | inactive
Hip14 (GeneID 39747) | DRSC10570 | -0.507 | 28879 | 26428 | inactive
CG5853 (GeneID 34322) | DRSC01103 | 0.00851 | 43039 | 40245 | inactive
CG5853 (GeneID 34322) | DRSC02906 | -0.119 | 52007 | 57237 | inactive
pll (GeneID 43283) | DRSC17026 | -0.834 | 35325 | 35629 | inactive
pll (GeneID 43283) | DRSC28551 | -0.238 | 65725 | 49589 | inactive
CG4168 (GeneID 34889) | DRSC01447 | -0.248 | 40931 | 40022 | inactive
CG4168 (GeneID 34889) | DRSC01933 | -0.332 | 47103 | 56256 | inactive
CG4168 (GeneID 34889) | DRSC22789 | -0.102 | 50035 | 44085 | inactive
CG5421 (GeneID 34661) | DRSC02858 | -0.361 | 44964 | 38839 | inactive
CG5421 (GeneID 34661) | DRSC24636 | -0.0669 | 61504 | 40980 | inactive
GluRIIE (GeneID 318623) | DRSC13431 | 0.143 | 36928 | 60470 | inactive
GluRIIE (GeneID 318623) | DRSC39623 | -0.177 | 60906 | 52178 | inactive
CG3036 (GeneID 33695) | DRSC00562 | 0.487 | 63029 | 63150 | inactive
CG3036 (GeneID 33695) | DRSC24856 | -1.09 | 44411 | 44891 | inactive
CG2076 (GeneID 32041) | DRSC19832 | -0.379 | 58591 | 60967 | inactive
CG2076 (GeneID 32041) | DRSC27047 | 0.384 | 66274 | 62090 | inactive
sbm (GeneID 32397) | DRSC20185 | 0.654 | 78672 | 75072 | inactive
Esp (GeneID 42962) | DRSC16664 | -0.0428 | 37465 | 58525 | inactive
CG34011 (GeneID 3885619) | DRSC00888 | 0.0531 | 44669 | 41668 | inactive
CG34011 (GeneID 3885619) | DRSC39571 | -0.436 | 60409 | 48427 | inactive
PGRP-LB (GeneID 41379) | DRSC14926 | 0.0119 | 45783 | 45903 | inactive
PGRP-LB (GeneID 41379) | DRSC39813 | 0.136 | 56379 | 59997 | inactive
CG12355 (GeneID 2768954) | DRSC09381 | 0.528 | 54321 | 40253 | inactive
CG12355 (GeneID 2768954) | DRSC09883 | -0.106 | 71812 | 60666 | inactive
CG31689 (GeneID 326154) | DRSC00734 | -0.286 | 43348 | 42336 | inactive
CG31689 (GeneID 326154) | DRSC24715 | -0.2 | 58111 | 58523 | inactive
GluRIIB (GeneID 33789) | DRSC03335 | 2.26 | 84403 | 52041 | active
GluRIIB (GeneID 33789) | DRSC39568 | -0.209 | 62890 | 54056 | inactive
CG6356 (GeneID 42893) | DRSC16026 | 0.44 | 36443 | 65657 | inactive
CG6356 (GeneID 42893) | DRSC39846 | -0.447 | 47909 | 52030 | inactive
CrzR (GeneID 39409) | DRSC09781 | 0.305 | 82843 | 63702 | inactive
CrzR (GeneID 39409) | DRSC09782 | -0.0179 | 40409 | 43434 | inactive
Ent1 (GeneID 33207) | DRSC00330 | -0.578 | 48029 | 48097 | inactive
Gr93d (GeneID 117470) | DRSC21941 | 0.00884 | 49418 | 47892 | inactive
CG8034 (GeneID 32924) | DRSC29895 | 0.508 | 55367 | 51698 | inactive
CG7840 (GeneID 34136) | DRSC03075 | -0.337 | 53378 | 49418 | inactive
CG7840 (GeneID 34136) | DRSC39867 | -0.505 | 52480 | 51647 | inactive
Atf-2 + CG44247 | DRSC04130 | 0.404 | 33044 | 35239 | inactive
Atf-2 + CG44247 | DRSC04413 | 0.107 | 50921 | 40485 | inactive
DopEcR (GeneID 38539) | DRSC08529 | -0.922 | 21423 | 28005 | inactive
tw (GeneID 31024) | DRSC18537 | -0.607 | 40553 | 36928 | inactive
tw (GeneID 31024) | DRSC39796 | -0.175 | 50378 | 57339 | inactive
Or71a (GeneID 39641) | DRSC11244 | -0.372 | 68572 | 54321 | inactive
Or71a (GeneID 39641) | DRSC39566 | -0.412 | 56602 | 50789 | inactive

Part of the list above, showing only “ATP luminescence, replicate 1”.
CG3036 (GeneID 33695) [DRSC24856]: 44411
CG2076 (GeneID 32041) [DRSC19832]: 58591
CG2076 (GeneID 32041) [DRSC27047]: 66274
sbm (GeneID 32397) [DRSC20185]: 78672
Esp (GeneID 42962) [DRSC16664]: 37465
CG34011 (GeneID 3885619) [DRSC00888]: 44669
